Results: patent US4232014A, “Aminoalkylindans and use as hypotensive agents” (Marion Laboratories, Inc., priority 1979, dated 1980)

System: Desoxycorticosterone Hypertensive Rats
Assay: Cardiovascular activity (blood pressure and heart rate) in desoxycorticosterone hypertensive rats
Design: species or system male Charles River rats
Conditions: rat, in vivo
Description: The indirect measurements of blood pressure and heart rate were determined in male Charles River rats made hypertensive (systolic blood pressure >159 mm Hg) by subcutaneously implanting a wax-formulated pellet containing 10 mg of desoxycorticosterone acetate. Systolic blood pressure was measured in the caudal arteries of prewarmed (40° C.), unanesthetized, restrained animals by a pneumatic pulse transducer placed distal to an automated tail pressure cuff and was recorded on a physiograph. Heart rate was determined from the amplified pulse waves recorded during the blood pressure measurements. Prior to the actual experiments, animals were accustomed to the measurement handling procedure several times during the preceding weeks.
Control systolic blood pressure and heart rates were determined in a group of usually six hypertensive rats on each day. A compound for evaluation was administered by intraperitoneal injection either in solution or as a suspension at 24 hr. intervals following injection. Mean values of the group for these parameters at a particular measurement period were calculated, and then the mean difference from control, along with its associated standard error, was calculated for each period. The statistical significance of the changes produced by a compound was tested by an analysis of variance and the Newman-Keuls a posteriori test when F was significant. […]

N=C(N)NCCN1CCCCCCC1 [Guanethidine, reference compound]
change in mean systolic blood pressure from control levels: significant depressions in mean systolic blood pressure from control levels
